Experimental data: PMC9520839
These are yes or no findings as the source states them, for the method shown. In cells and extracts the contact can be indirect. Some results given as binding are weak or reduced against the parent protein; the word gives no strength. Sequences can lack the tags named with a protein.

Chains of the proteins cited; added tags and fusions are not shown.
UniProt P35222: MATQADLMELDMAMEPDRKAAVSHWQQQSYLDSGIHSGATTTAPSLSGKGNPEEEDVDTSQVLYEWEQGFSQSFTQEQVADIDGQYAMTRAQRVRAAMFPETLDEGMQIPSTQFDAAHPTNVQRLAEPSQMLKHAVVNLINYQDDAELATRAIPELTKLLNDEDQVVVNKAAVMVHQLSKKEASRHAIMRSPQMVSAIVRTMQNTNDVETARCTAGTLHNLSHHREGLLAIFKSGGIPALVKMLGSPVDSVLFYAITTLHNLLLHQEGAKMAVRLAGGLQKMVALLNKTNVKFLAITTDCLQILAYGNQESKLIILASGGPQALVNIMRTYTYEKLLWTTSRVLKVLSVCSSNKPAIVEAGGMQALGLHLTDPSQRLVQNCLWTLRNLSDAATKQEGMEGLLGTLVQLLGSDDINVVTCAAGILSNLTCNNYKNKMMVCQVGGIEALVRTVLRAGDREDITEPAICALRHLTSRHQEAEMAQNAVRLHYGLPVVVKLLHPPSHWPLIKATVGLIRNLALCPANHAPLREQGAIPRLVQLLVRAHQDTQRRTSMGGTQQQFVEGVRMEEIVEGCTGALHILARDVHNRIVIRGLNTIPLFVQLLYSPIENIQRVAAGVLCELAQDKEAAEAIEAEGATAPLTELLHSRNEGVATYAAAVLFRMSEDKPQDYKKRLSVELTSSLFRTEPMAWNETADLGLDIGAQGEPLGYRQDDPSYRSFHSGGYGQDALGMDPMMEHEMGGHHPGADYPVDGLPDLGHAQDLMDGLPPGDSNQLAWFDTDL

Target: T1, FLAG-FAM83H (human) (UniProt Q6ZRV2)
T1 sequence: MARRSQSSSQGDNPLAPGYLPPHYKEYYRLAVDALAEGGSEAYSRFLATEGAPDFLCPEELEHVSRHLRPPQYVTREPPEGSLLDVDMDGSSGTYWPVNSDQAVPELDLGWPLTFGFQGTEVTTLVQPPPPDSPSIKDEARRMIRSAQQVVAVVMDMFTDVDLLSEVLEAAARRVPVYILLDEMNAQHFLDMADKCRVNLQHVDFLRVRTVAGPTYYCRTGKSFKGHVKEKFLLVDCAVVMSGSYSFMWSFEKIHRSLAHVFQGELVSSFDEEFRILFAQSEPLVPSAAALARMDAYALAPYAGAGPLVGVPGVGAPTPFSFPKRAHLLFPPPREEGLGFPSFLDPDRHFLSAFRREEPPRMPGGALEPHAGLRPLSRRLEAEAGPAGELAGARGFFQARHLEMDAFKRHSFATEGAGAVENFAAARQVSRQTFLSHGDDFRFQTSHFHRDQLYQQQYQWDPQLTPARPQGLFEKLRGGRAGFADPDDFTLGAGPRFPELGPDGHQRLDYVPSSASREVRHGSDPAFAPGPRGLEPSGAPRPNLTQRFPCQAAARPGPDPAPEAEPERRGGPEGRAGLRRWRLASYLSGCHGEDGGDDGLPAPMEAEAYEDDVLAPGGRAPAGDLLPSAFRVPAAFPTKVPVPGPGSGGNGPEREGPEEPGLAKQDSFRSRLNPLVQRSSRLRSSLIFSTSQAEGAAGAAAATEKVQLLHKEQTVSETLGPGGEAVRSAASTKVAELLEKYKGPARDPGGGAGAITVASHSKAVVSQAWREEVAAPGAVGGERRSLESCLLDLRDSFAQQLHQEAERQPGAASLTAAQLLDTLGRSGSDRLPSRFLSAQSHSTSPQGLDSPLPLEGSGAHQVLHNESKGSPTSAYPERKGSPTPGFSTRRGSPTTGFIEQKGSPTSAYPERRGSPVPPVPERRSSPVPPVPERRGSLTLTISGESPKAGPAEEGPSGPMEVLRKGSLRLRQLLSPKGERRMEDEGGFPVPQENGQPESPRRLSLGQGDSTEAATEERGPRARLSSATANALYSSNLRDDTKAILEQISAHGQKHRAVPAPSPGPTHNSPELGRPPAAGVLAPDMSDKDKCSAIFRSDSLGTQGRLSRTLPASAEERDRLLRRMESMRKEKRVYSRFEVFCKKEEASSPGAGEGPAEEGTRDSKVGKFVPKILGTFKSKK
Experiment: co-IP; HEK293T cells transfected with FLAG-FAM83H and/or HA-β-catenin; lysate in IP lysis buffer, anti-FLAG magnetic beads overnight at 4 °C, washed 3-4 times with IP buffer, immunoblot

Row | binding | Substance
1 | binds | HA-β-catenin (from UniProt P35222 1-781)
2 | binds | endogenous β-catenin (from UniProt P35222 1-781)
